In all, about 340,000 compounds went through this assay and about 170 (0.05%) were called active. Inconclusive results, whose numbers are uncertain, are shown with a selection of clear calls. Calls come from the whole dose curve; as a rule, active = well fitted inhibition curve with a large enough effect in the signal ratio, with a control signal flat (not every such curve was filed as active); inconclusive = small, poorly fitted or top-dose-only effect, or effect the other way, or a change in a side signal; inactive = flat fitted curve, though single readings scatter; the % refers to the signal ratio. Potencies of inconclusive entries are doubtful fits and often do not repeat.
Assay: qHTS Assay to Find Inhibitors of Chronic Active B-Cell Receptor Signaling;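 for activity change, negative = inhibition: plate controls were basal doxycycline-induced cells for no effect and cells given 10 µM MG132 for full effect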
Settings: ABC-DLBCL IkBa-CBG/CBR reporter, luminescence ratio (green luciferase fused to IkBa over red control in TMD8 lymphoma cells), 4 h; activity change, negative = inhibition: at 46.1 µM (top of the series) unless noted
Procedure, shortened: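 Doxycycline induced both beetle luciferases in TMD8 lymphoma cells; IKK-driven degradation limits the IkappaBalpha-fused green signal, while red luminescence normalises for cell number and nonspecific effects. Compounds tested up to 46 uM, 4 hrs.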
Potency is the fitted concentration of half-maximal effect.

Structure (SMILES) | Potency | activity change, negative = inhibition
NC(=O)CCCc1nc(-c2ccccc2)no1 | inconclusive: 2 µM [rising, full curve] | –
COc1ccc(CC(=O)Nc2cc(C)on2)cc1 | – | inconclusive: 2.96%
CCOC(=O)N1CCN(C(=O)c2cccn3c(=O)c4c5c(sc4nc23)CCCC5)CC1 | – | inconclusive: 9.69%
CC1Cc2cc(/C(O)=C3\C(=O)C(=O)N(CCN(C)C)C3c3ccccc3F)ccc2O1 (centres undefined) | – | inconclusive: 5.96%
CN(CC(=O)NCCc1ccc(Cl)cc1)S(=O)(=O)c1ccc2c(c1)c(=O)n(C)c(=O)n2C | – | inactive: 1.64%
Cn1c2ccccc2c2nnc(SC3CCOC3=O)nc21 (centres undefined) | – | inactive: 0.205%
Cc1c(Cl)cccc1NC(=O)CSC(C)c1nc2ccccc2c(=O)[nH]1 (centres undefined) | – | inactive: 0.829%
O=C(Oc1cccc2ccccc12)c1cc(Cl)nc2ccccc12 | – | inactive: -1.23%
Cc1nn(Cc2cccc(C(=O)N3CCCC(C)C3)c2)c(C)c1[N+](=O)[O-] (centres undefined) | – | inactive: 1.89%
CNC(=O)c1ccc2nc(NC(C)=O)sc2c1 | – | inconclusive: 6.67%
COc1cc(C(=O)NCCc2nc3ccccc3n2C)cc(OC)c1OC | – | inconclusive: -6.89%
CC(Cc1c[nH]c2ccccc12)C(=O)NCc1ccco1 (centres undefined) | – | inactive: 1.34%
Nc1[nH]nc2nc(N3CCOCC3)nc(-c3ccccc3)c12 | inconclusive: 10 µM [falling, partial curve, poor fit] | –
COC(=O)C1=C(C)NC(C)=C(C(=O)OC)C1c1ccc2ccccc2n1 | inconclusive: 0.411 µM [falling, partial curve, poor fit] | –
S=c1[nH]cc(-c2ccccc2)n1-c1cccc(Cl)c1 | – | inactive: 0.502%
COc1ccc2oc(-c3ccc(C)c(NC(=O)CSc4ccc(Cl)cc4)c3)nc2c1 | – | inconclusive: 9.98%
Cc1nnc(SCC(=O)Nc2ccc3c(c2)OCCO3)n1N | – | inconclusive: 13.6%
CCCn1c(NC(=O)CCNC(=O)c2ccccc2Cl)nc2ccccc21 | – | inactive: -7.58%
CCOc1cc(C2C(C(=O)OC)=C(C)NC3=C2C(=O)c2ccccc23)c(Br)cc1O (centres undefined) | inconclusive: 6.31 µM [falling, single point] | –
COCC(=O)N1CCC(Oc2ccc(C(=O)N3C[C@@H]4CCC[C@H]3C4)cc2)CC1 | – | inconclusive: -13.8%
Cn1nc(C(=O)OCC(=O)Nc2cc(Cl)ccc2C#N)c2ccccc2c1=O | – | inconclusive: 3.13%

Structure (SMILES) | Potency | activity change, negative = inhibition
Cc1ccc(S(=O)(=O)N/N=C\c2cn(CC(N)=O)c3ccccc23)cc1 | – | inactive: -0.0262%
C/C(=N\OC(=O)c1ccc(C)cc1)c1sc(C)nc1C | – | inconclusive: 6.32%
CCN(CC)S(=O)(=O)c1ccc(NC(=O)c2cnccn2)cc1 | – | inconclusive: 8.79%
CC(=O)N(c1nnc(-c2ccc(C)cc2)s1)C1CCCC1 | – | inconclusive: -0.837%
O=C(N/C(=C/c1ccco1)C(=O)N1CCOCC1)c1ccccc1Br | – | inactive: -0.158%
O=C(Nc1cc(Cl)cc(Cl)c1)c1ccc(Cn2c(=O)[nH]c3ccsc3c2=O)cc1 | – | inactive: 1.75%
O=C(Cn1nc(C(=O)O)c2ccccc2c1=O)Nc1cc(S(=O)(=O)N2CCOCC2)ccc1Cl | – | inactive: 0.165%
O=C1c2cccc3c(Nc4ccccc4Cl)c([N+](=O)[O-])cc(c23)C(=O)N1CCO | – | inconclusive: -0.291%
COc1cc(C(=O)NCCNc2nc3ccc(C)cc3cc2C#N)cc(OC)c1OC | – | inconclusive: -0.0752%
CN(C)c1ccc(N2C(=NC(=O)c3ccccc3)SC3CS(=O)(=O)CC32)cc1 (centres undefined) | inconclusive: 35.5 µM [falling, single point] | –
O=c1[nH]c(CSc2nnc(Cc3ccccc3)o2)nc2ccccc12 | – | inconclusive: -10.7%
CCCCCCCn1c(NC(=O)CC)nc2ccccc21 | – | inconclusive: -17.2%
O=C(NC(=S)Nc1ccc2oc(-c3ccncc3)nc2c1)c1ccccc1F | inconclusive: 5.62 µM [falling, partial curve, poor fit] | –
CC(C)c1onc(C(=O)N2CCCCCC2)c1[N+](=O)[O-] | – | inactive: 5.13%
CC(C)CCn1c(SCC(=O)N2CC(=O)Nc3ccccc32)nc2scc(-c3cccs3)c2c1=O | inconclusive: 23.1 µM [rising, single point] | –
O=C(COc1ccccc1)Nc1cc(S(=O)(=O)N2CCOCC2)ccc1N1CCCC1 | – | inconclusive: -5.65%
C/C(=N\Nc1ccc([N+](=O)[O-])cc1)c1cc2ccccc2o1 | – | inconclusive: 8.69%
O=C1[C@H]2[C@@H](c3ccc(F)cc3)N3C(=O)N(c4ccccc4)C(=O)[C@@]3(Cc3ccccc3)[C@H]2C(=O)N1C1CCCCC1 | – | inconclusive: 12.6%
COc1ccc(C(=O)Nc2ccccc2-c2nnn(CC(=O)NCc3ccco3)n2)cc1 | – | inactive: 8%
COC(=O)C1CCN(C(c2ccccc2)c2sc3nc(-c4ccco4)nn3c2O)CC1 (centres undefined) | – | inactive: 2.22%
Cc1sc(C(=O)NCc2cccnc2)c2nc(C)n(CC(=O)NCc3cccnc3)c(=O)c12 | inconclusive: 4.61 µM [rising, partial curve, poor fit] | –

Structure (SMILES) | Potency | activity change, negative = inhibition
Cc1cc(N2CCOCC2)nc2ccc(NC(=O)CCC(=O)N3CCN(c4cccc(C(F)(F)F)c4)CC3)cc12 | – | inconclusive: -14.5%
CC1(C)CC(=O)C=C(/C=C/c2ccccc2)C1 | – | inconclusive: 9.81%
Clc1ccc(-c2n[nH]c3c2CCC3)cc1Cl | – | inconclusive: 3.48%
CCNc1nc(NCC)n2c(SC(C(=O)Nc3cc(C)ccc3OC)c3ccccc3)nnc2n1 (centres undefined) | – | inconclusive: -5.93%
CC12CCC(C(=O)Nc3cccc(Cl)c3Cl)([C@H](Br)C1=O)C2(C)C (some centres undefined) | – | inconclusive: 11.1%
Cc1c(Cl)cccc1NC(=O)CSc1nc(=O)n(Cc2cccnc2)c2c1CCC2 | – | inactive: -29.3%
O=C(c1ccccc1)C1Oc2ccccc2C2CC(c3cccs3)=NN12 (centres undefined) | – | inconclusive: 7.62%
COc1ccc(NC(=O)COC(=O)Cn2cnc3ccccc32)cc1 | – | inactive: -2.45%
CCCCNC(=O)CSc1cc(=O)n(C)c2ccccc12 | – | inconclusive: 12.9%
COc1cc2c(cc1OC)CN(C(=O)CC1CC3CCC1C3)CC2 (centres undefined) | – | inconclusive: 3.47%
N#Cc1ccc(C(=O)NCC(c2ccco2)N2CCCC2)cc1 (centres undefined) | – | inconclusive: 5.35%
C/C(=N/NC(=O)c1nnn(-c2nonc2N)c1-c1ccccc1)c1ccc2c(c1)OCO2 | – | inactive: 0.821%
COc1ccc(N(C(=O)c2snc(C(N)=O)c2N)C(C(=O)NCc2ccc(F)cc2)c2ccc(O)cc2)cc1 (centres undefined) | inconclusive: 22.4 µM [falling, single point] | –
CCOc1cccc(C(=O)Nc2ccc3oc(Cc4ccc(Cl)cc4)nc3c2)c1 | – | inconclusive: 10.7%
O=C(CSc1nnc(NC2CC2)s1)NN1C(=O)NC2(CCCCC2)C1=O | – | inconclusive: 7.47%
Cc1ccc(Cn2ncc(Cl)c(Cl)c2=O)cc1 | – | inconclusive: -1.15%
C=CCNc1nc2ccccc2nc1NS(=O)(=O)c1cccc(C)c1 | – | inconclusive: -3.91%
COC(=O)C(O)(CC(=O)Nc1ccccc1OC)C(F)(F)F (centres undefined) | inconclusive: 25.9 µM [falling, partial curve] | –
CCN1CCN(C(=O)C(=O)c2cn(CC(=O)N3CCCC3)c3ccccc23)CC1 | inconclusive: 0.178 µM [falling, full curve, poor fit] | –
OCCCc1nc2n(n1)C(c1ccccc1)C=C(c1ccccc1)N2 (centres undefined) | – | inconclusive: 13.3%
COC(=O)c1sc2ncccc2c1OCc1ccc(Cl)cc1 | – | inactive: 6.23%

Structure (SMILES) | Potency | activity change, negative = inhibition
Cn1cnnc1Sc1ccc(/C=C/C(=O)c2ccc(O)cc2)cc1[N+](=O)[O-] | inconclusive: 7.94 µM [falling, partial curve, poor fit] | –
COc1ccc(-c2csc(NC(=O)CSCC(=O)Nc3cc(C)on3)n2)cc1OC | inconclusive: 23.1 µM [falling, single point] | –
Cc1[nH]nc(N)c1N=Nc1ccc(Br)cc1 | – | inactive: -14.1%
CCOC(=O)N1CCC(Nc2ncnc3c2cnn3-c2ccc(C)cc2C)CC1 | – | inconclusive: 0.215%
CC1CCCC(C)N1C(=O)COC(=O)C1CCN(S(=O)(=O)c2c(Cl)cccc2Cl)CC1 (centres undefined) | – | inconclusive: 20%
COc1ccc(-c2nc(NC(=O)C3CCN(c4nc5ccccc5o4)CC3)sc2C)cc1 | – | inconclusive: -12.5%
CCCCC1=CC2=CC(=O)C(C)(OC(=O)c3cnc4ccccc4n3)C(=O)C2=CO1 (centres undefined) | – | inactive: 0.272%
COc1ccccc1NC(=O)CSc1nnc(COc2ccccc2C)o1 | – | inconclusive: -1.66%
Cc1cccc(OCC(=O)NCc2ccccc2)c1 | – | inactive: -0.695%
Nc1c(C(=O)c2ccccc2)sc2snc(SCC(=O)c3ccccc3)c12 | – | inactive: -8.8%
Cc1ccc(OCC(=O)Nc2ccc(Cl)cc2)c([N+](=O)[O-])n1 | – | inactive: -1.08%
O=C(Nc1ccc(Br)cc1)c1ccco1 | – | inconclusive: -8.53%
COc1cccc(-n2c(=O)c3c(C)c(C(=O)N(C)C)sc3n(CC(=O)NCC3CCCO3)c2=O)c1 (centres undefined) | – | inactive: 5.15%
CC1CCCC(NCC(O)COC(c2ccc(F)cc2)c2ccc(F)cc2)C1C (centres undefined) | – | inconclusive: -0.587%
Cc1ccc(-c2cc(C(F)(F)F)c(C#N)c(SCC(=O)O)n2)cc1 | – | inconclusive: 17.8%
N#Cc1cccc(Oc2ccc(S(=O)(=O)N3CCCC3)cn2)c1 | – | inactive: -7.67%
CCCn1c(-c2ccncc2)n[nH]c1=S | – | inconclusive: 8.2%
C/C(=C\c1cccc(Br)c1)C(=O)c1c(C)cc(C)[nH]c1=O | – | inconclusive: -14%
CC1CCc2c(C(=O)NCCCN3CCOCC3)csc2C1 (centres undefined) | – | inconclusive: -1.17%
CCOC(=O)Nc1ccc2c(c1)N(C(=O)CCN(CC)CC)c1ccccc1S2=O (centres undefined) | – | inconclusive: 12.7%
COc1ccc(/C=C/C(=O)Nc2nonc2NC(C)=O)cc1 | inconclusive: 16.4 µM [falling, single point] | –

A portion from the list above:
Structure (SMILES) | Potency | activity change, negative = inhibition
Cc1ccc(Cn2ncc(Cl)c(Cl)c2=O)cc1 | – | inconclusive: -1.15%
C=CCNc1nc2ccccc2nc1NS(=O)(=O)c1cccc(C)c1 | – | inconclusive: -3.91%
COC(=O)C(O)(CC(=O)Nc1ccccc1OC)C(F)(F)F (centres undefined) | inconclusive: 25.9 µM [falling, partial curve] | –
CCN1CCN(C(=O)C(=O)c2cn(CC(=O)N3CCCC3)c3ccccc23)CC1 | inconclusive: 0.178 µM [falling, full curve, poor fit] | –
OCCCc1nc2n(n1)C(c1ccccc1)C=C(c1ccccc1)N2 (centres undefined) | – | inconclusive: 13.3%
COC(=O)c1sc2ncccc2c1OCc1ccc(Cl)cc1 | – | inactive: 6.23%
Cn1cnnc1Sc1ccc(/C=C/C(=O)c2ccc(O)cc2)cc1[N+](=O)[O-] | inconclusive: 7.94 µM [falling, partial curve, poor fit] | –
COc1ccc(-c2csc(NC(=O)CSCC(=O)Nc3cc(C)on3)n2)cc1OC | inconclusive: 23.1 µM [falling, single point] | –
Cc1[nH]nc(N)c1N=Nc1ccc(Br)cc1 | – | inactive: -14.1%
CCOC(=O)N1CCC(Nc2ncnc3c2cnn3-c2ccc(C)cc2C)CC1 | – | inconclusive: 0.215%
CC1CCCC(C)N1C(=O)COC(=O)C1CCN(S(=O)(=O)c2c(Cl)cccc2Cl)CC1 (centres undefined) | – | inconclusive: 20%
COc1ccc(-c2nc(NC(=O)C3CCN(c4nc5ccccc5o4)CC3)sc2C)cc1 | – | inconclusive: -12.5%
CCCCC1=CC2=CC(=O)C(C)(OC(=O)c3cnc4ccccc4n3)C(=O)C2=CO1 (centres undefined) | – | inactive: 0.272%
COc1ccccc1NC(=O)CSc1nnc(COc2ccccc2C)o1 | – | inconclusive: -1.66%
Cc1cccc(OCC(=O)NCc2ccccc2)c1 | – | inactive: -0.695%
Nc1c(C(=O)c2ccccc2)sc2snc(SCC(=O)c3ccccc3)c12 | – | inactive: -8.8%
Cc1ccc(OCC(=O)Nc2ccc(Cl)cc2)c([N+](=O)[O-])n1 | – | inactive: -1.08%
O=C(Nc1ccc(Br)cc1)c1ccco1 | – | inconclusive: -8.53%
COc1cccc(-n2c(=O)c3c(C)c(C(=O)N(C)C)sc3n(CC(=O)NCC3CCCO3)c2=O)c1 (centres undefined) | – | inactive: 5.15%
CC1CCCC(NCC(O)COC(c2ccc(F)cc2)c2ccc(F)cc2)C1C (centres undefined) | – | inconclusive: -0.587%
Cc1ccc(-c2cc(C(F)(F)F)c(C#N)c(SCC(=O)O)n2)cc1 | – | inconclusive: 17.8%
N#Cc1cccc(Oc2ccc(S(=O)(=O)N3CCCC3)cn2)c1 | – | inactive: -7.67%
CCCn1c(-c2ccncc2)n[nH]c1=S | – | inconclusive: 8.2%
C/C(=C\c1cccc(Br)c1)C(=O)c1c(C)cc(C)[nH]c1=O | – | inconclusive: -14%
